In the DeepSol protein solubility set:

Experiment: soluble on expression in E. coli; label from the status in PepcDB or PDB records

PWQKFIIYSLLGFYIKGTIIRRFKEAFIFLPRKNGKTRFVAALSWALALLERKSGSKIYIVGAALEQSLQSFNFINFNIKEMGEEDSFRVLDNNQEHSISGDFGDGSLYIKALAANPDRQDSLNCNVGIADELHAYKTPKQYNIIKEAMKAYTNKLMIGITTAGDNMSSFCYQRLQYCKKILDDTVKDEAYFVFIAKADEDEKGEVDYTDPKQHEKANPNYGITIRPADMTNDSLQAQNDPQQRKDFLSKSLNIYTSAMKAYFNIDEFKASDSKYNWTLEELAKLPIKWYGGADLAKLHDLTAAALYGRYVMDDGTEVDIVITHAFFPIVMANKKADEDNIPLFGWKDDGVLTMTNTPTTNFAVIVNWFKEMKNKGFDIKLVGFDKKFGREFFYLMKKSGIKIVDQPQYFYKKSEGFRRIETKAKDGHFYYCHNQSFEYCVQNVRAIEKTDDMIQYEKVDGDGGSQRIDLFDAAVFGAVQMLEDIQMSAVASKWLNSN
soluble on expression in E. coli: not soluble
